The other results are listed elsewhere or left out.
What was measured:
Experiment in all cases: log2 fold change, soluble protein after heating vs DMSO (PISA); higher = thermal stabilisation; K562 cells, 10 uM, 30 min; active = over 0.2 and 3.5 SD of the protein, either way, in both replicates (recomputed)
[1] = compound: CS(=O)(=O)c1ccc(-c2cnc(N)c(C(=O)Nc3ccccc3)n2)cc1
How it was run: (§1)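 K562 cells at 2×10^6 cells/mL were given 10 μM compound for 30 min. Aliquots then went through 3 min of heating across 48°C-58°C, were pooled, and were extracted in PBS with 0.5% NP-40 at 4°C, and the supernatant after 21,000xg for 90 min was quantified by TMTpro 16plex LC-MS/MS with channel sums equalised. Thermal stability relative to control samples, from duplicates, is given as log2 fold change.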

Sequences of proteins named here, by UniProt entry; tags and fusion partners are left off. A change or cut given only in a name is not applied to a line headed by its entry.
UniProt P53778: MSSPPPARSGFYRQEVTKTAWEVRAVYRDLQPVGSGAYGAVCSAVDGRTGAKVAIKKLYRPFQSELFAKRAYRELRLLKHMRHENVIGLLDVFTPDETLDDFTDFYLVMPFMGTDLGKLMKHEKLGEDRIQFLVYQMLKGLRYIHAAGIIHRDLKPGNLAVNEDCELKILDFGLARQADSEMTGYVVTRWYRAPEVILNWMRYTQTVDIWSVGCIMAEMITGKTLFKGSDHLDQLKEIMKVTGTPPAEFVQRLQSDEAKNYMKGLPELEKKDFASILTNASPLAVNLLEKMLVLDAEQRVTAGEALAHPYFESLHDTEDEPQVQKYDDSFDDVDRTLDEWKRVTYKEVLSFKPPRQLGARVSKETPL
UniProt Q8WVR3: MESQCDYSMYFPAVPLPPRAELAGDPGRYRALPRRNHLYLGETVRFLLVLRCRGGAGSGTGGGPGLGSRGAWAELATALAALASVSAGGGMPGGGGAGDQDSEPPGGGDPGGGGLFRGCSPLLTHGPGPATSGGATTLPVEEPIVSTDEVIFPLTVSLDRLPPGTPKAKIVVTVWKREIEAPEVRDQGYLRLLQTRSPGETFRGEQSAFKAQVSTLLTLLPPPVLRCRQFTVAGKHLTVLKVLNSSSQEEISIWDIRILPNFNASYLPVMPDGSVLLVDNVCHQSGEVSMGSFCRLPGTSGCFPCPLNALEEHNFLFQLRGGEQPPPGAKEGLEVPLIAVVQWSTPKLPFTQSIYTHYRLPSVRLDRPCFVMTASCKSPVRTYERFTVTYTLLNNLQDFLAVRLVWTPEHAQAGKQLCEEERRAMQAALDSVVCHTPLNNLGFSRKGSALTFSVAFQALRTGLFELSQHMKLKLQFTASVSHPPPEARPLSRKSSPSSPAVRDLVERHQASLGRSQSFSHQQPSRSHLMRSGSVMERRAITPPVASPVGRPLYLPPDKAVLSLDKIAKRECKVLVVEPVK
UniProt O95372: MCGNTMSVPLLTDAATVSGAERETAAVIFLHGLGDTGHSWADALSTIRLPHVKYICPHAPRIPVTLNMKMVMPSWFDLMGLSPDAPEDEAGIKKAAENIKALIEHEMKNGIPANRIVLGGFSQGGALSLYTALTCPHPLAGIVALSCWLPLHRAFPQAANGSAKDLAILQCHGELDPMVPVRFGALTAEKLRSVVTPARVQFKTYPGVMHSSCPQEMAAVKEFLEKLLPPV
UniProt Q16539, whole entry, looked up: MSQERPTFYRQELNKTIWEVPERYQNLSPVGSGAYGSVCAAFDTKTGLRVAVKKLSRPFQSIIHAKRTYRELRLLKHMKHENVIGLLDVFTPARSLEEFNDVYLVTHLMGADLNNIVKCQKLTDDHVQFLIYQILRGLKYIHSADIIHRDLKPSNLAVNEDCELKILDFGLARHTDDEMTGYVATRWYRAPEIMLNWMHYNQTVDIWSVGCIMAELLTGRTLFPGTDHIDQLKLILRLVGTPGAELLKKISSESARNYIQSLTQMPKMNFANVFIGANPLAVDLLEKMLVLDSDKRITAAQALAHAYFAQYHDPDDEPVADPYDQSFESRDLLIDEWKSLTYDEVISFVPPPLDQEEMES
UniProt Q13257, whole entry, looked up: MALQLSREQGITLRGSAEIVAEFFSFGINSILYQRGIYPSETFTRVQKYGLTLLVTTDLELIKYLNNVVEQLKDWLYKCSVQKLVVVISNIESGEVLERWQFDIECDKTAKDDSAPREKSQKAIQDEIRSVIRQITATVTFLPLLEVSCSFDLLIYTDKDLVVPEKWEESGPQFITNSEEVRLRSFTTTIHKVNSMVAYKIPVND
UniProt Q9Y6R4: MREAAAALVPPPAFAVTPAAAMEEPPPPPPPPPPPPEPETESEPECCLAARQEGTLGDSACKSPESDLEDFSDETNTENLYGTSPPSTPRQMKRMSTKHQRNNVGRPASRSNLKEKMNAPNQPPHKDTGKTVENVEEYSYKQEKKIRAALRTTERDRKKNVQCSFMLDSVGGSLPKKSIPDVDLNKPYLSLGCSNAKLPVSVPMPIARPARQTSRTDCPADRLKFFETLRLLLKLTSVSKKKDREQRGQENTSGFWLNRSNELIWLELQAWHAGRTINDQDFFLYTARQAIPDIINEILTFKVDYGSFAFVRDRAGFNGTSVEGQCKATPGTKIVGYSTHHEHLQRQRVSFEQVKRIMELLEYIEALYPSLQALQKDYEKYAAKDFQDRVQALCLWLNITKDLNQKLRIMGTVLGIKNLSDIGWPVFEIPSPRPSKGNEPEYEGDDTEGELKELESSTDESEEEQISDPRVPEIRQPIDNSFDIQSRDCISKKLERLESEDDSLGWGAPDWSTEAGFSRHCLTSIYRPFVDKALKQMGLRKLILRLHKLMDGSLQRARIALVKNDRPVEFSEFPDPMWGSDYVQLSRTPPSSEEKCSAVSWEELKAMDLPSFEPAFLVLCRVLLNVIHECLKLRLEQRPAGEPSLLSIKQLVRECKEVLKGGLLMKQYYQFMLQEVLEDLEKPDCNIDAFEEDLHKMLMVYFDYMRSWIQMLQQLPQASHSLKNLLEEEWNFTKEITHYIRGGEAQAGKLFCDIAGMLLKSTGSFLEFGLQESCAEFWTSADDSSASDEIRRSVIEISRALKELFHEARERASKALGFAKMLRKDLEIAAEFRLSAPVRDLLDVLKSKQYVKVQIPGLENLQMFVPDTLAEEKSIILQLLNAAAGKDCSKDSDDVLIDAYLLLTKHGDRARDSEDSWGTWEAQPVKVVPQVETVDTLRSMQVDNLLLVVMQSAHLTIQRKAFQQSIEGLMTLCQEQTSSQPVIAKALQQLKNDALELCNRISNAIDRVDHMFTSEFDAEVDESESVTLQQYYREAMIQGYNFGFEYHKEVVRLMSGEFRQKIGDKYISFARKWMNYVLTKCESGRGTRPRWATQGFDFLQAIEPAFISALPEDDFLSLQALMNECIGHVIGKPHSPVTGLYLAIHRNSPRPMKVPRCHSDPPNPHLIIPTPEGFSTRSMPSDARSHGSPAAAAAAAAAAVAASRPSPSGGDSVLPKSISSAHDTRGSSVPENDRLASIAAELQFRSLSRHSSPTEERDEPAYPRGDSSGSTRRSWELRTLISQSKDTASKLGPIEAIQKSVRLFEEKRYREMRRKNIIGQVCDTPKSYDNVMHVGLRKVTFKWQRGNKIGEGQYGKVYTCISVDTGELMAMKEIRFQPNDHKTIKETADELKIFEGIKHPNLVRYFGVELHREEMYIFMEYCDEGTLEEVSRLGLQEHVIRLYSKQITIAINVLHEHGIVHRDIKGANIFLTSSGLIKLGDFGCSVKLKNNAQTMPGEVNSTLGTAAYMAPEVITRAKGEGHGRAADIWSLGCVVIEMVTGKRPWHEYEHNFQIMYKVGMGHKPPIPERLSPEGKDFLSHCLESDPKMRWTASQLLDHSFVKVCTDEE
UniProt Q9Y4K4: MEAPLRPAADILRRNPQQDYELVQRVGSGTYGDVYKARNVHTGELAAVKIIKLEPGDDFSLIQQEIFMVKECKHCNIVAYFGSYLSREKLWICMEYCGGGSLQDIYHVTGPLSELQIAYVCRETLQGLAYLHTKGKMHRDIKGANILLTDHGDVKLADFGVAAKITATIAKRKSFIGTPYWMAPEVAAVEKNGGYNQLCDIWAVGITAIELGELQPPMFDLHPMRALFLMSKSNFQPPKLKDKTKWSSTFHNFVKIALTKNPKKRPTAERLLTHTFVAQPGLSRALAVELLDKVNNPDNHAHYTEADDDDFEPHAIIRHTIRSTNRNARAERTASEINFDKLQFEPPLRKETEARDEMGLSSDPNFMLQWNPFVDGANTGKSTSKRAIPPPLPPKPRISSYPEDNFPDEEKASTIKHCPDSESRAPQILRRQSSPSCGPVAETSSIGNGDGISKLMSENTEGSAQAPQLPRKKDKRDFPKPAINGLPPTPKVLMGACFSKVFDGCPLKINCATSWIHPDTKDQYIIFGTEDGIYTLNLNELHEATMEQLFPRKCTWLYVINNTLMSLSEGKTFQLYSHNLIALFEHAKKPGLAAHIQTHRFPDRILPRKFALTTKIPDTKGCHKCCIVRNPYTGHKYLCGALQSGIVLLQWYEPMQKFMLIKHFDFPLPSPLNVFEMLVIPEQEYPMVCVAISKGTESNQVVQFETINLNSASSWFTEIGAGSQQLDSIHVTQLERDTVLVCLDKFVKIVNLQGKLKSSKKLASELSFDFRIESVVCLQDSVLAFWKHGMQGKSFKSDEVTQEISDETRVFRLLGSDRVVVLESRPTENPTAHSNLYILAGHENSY
UniProt Q8IW41: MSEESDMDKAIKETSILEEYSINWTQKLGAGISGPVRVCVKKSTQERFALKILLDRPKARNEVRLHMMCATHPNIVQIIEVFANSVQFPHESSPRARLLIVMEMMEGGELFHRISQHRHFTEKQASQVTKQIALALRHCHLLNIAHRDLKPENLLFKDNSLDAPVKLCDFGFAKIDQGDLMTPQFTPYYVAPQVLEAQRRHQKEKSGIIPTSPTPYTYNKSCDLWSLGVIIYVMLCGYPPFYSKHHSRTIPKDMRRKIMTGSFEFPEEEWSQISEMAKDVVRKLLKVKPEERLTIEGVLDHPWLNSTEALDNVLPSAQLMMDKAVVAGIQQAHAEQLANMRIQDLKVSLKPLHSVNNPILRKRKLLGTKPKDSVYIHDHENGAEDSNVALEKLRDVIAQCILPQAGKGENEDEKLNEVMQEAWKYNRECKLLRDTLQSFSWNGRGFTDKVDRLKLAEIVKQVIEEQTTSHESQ
UniProt Q8IWC1: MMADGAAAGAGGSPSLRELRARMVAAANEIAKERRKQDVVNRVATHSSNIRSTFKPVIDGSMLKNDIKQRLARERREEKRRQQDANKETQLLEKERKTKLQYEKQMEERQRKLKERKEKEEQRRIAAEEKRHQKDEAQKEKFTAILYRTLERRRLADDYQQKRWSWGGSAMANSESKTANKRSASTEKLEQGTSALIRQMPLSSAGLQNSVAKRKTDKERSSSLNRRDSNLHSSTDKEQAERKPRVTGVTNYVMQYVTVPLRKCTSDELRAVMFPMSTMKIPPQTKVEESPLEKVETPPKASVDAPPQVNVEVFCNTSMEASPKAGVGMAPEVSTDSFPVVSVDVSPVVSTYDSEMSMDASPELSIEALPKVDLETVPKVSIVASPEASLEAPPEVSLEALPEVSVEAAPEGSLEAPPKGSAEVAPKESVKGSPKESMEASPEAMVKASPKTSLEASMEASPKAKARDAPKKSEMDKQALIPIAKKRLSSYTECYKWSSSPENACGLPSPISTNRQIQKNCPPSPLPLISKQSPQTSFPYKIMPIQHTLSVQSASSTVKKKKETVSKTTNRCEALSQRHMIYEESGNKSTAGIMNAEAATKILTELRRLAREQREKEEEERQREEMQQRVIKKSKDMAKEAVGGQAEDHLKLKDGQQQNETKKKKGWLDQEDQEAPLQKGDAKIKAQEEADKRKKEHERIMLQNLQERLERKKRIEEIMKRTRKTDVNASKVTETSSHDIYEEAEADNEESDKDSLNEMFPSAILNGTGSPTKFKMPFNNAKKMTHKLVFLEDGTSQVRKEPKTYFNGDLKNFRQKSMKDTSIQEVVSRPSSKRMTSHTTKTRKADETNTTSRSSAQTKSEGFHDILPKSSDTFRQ
UniProt Q99759: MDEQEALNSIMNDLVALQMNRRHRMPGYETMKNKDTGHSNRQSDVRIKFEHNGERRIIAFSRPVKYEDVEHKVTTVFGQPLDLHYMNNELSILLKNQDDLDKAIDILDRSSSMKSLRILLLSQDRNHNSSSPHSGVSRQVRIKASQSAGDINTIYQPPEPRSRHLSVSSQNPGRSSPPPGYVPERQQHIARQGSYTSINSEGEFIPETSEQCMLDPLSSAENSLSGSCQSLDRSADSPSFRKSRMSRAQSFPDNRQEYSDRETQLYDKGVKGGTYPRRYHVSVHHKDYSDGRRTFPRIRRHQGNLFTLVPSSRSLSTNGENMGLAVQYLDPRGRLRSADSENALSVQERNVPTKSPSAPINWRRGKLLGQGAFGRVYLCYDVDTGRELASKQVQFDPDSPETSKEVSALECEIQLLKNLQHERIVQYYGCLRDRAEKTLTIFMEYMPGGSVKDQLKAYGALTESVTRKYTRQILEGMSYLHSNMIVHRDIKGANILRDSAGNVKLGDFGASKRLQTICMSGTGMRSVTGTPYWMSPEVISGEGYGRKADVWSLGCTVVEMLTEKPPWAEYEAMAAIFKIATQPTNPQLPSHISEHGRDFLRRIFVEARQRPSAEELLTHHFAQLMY
UniProt P46734: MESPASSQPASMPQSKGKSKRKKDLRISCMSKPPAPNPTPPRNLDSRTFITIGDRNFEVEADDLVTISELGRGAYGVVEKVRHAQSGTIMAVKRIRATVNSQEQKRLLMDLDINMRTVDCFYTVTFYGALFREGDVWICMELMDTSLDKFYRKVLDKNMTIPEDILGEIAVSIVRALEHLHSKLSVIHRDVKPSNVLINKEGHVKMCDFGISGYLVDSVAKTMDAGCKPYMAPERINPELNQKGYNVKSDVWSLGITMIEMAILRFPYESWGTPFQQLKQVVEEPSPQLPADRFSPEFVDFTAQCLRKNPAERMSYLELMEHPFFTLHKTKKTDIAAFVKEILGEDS

[2] = compound: C[C@@H]1COCCN1C2=NC(=NC(=C2)C3(CC3)S(=O)(=O)C)C4=C5C=CNC5=CC=C4
How it was run: as §1

[3] = compound: C[C@H](C1=CC=C(C=C1)C(=O)NC2=C3C=CNC3=NC=C2)N
How it was run: as §1

gandotinib = compound: Cc1cc(Nc2cc(CN3CCOCC3)c3nc(C)c(Cc4ccc(Cl)cc4F)n3n2)n[nH]1 [gandotinib]
How it was run: as §1

[4] = compound: Cc1cc(SCc2sc(-c3ccc(C(F)(F)F)cc3)nc2C)ccc1OCC(=O)O
How it was run: as §1

ispinesib = compound: Cc1ccc(C(=O)N(CCCN)[C@@H](c2nc3cc(Cl)ccc3c(=O)n2Cc2ccccc2)C(C)C)cc1 [ispinesib]
How it was run: as §1

bafetinib = compound: Cc1ccc(NC(=O)c2ccc(CN3CC[C@H](N(C)C)C3)c(C(F)(F)F)c2)cc1Nc1nccc(-c2cncnc2)n1 [bafetinib]
How it was run: as §1

[5] = compound: Cc1cccc(CC(=O)N2CCc3c2ccc(-c2cn(C)c4ncnc(N)c24)c3F)n1
How it was run: as §1

nilotinib = compound: Cc1cn(-c2cc(NC(=O)c3ccc(C)c(Nc4nccc(-c5cccnc5)n4)c3)cc(C(F)(F)F)c2)cn1 [nilotinib]
How it was run: as §1

[6] = compound: Cc1nc(Nc2n[nH]c3c2CN(C(=O)N[C@H](CN(C)C)c2ccccc2)C3(C)C)c2sccc2n1
How it was run: as §1

dasatinib = compound: Cc1nc(Nc2ncc(C(=O)Nc3c(C)cccc3Cl)s2)cc(N2CCN(CCO)CC2)n1 [dasatinib]
How it was run: as §1

[7] = compound: Cc1ncc(-c2ccnc(Nc3ccc(S(C)(=O)=O)cc3)n2)n1C(C)C
How it was run: as §1

[8] = compound: Cn1cc(-c2ccc3c(c2)CCN3C(=O)Cc2cccc(C(F)(F)F)c2)c2c(N)ncnc21
How it was run: as §1

[9] = compound: Cn1cc(-c2ccc3nnc(C(F)(F)c4ccc5ncccc5c4)n3n2)cn1
How it was run: as §1

tipifarnib = compound: Cn1cncc1[C@@](N)(c1ccc(Cl)cc1)c1ccc2c(c1)c(-c1cccc(Cl)c1)cc(=O)n2C [tipifarnib]
How it was run: as §1

mubritinib = compound: FC(F)(F)c1ccc(/C=C/c2nc(COc3ccc(CCCCn4ccnn4)cc3)co2)cc1 [mubritinib]
How it was run: as §1

crizotinib = compound: C[C@@H](Oc1cc(-c2cnn(C3CCNCC3)c2)cnc1N)c1c(Cl)ccc(F)c1Cl [crizotinib]
How it was run: as §1

doramapimod = compound: Cc1ccc(-n2nc(C(C)(C)C)cc2NC(=O)Nc2ccc(OCCN3CCOCC3)c3ccccc23)cc1 [doramapimod]
How it was run: as §1

tozasertib = compound: Cc1cc(Nc2cc(N3CCN(C)CC3)nc(Sc3ccc(NC(=O)C4CC4)cc3)n2)n[nH]1 [tozasertib]
How it was run: as §1

duvelisib = compound: C[C@H](Nc1ncnc2nc[nH]c12)c1cc2cccc(Cl)c2c(=O)n1-c1ccccc1 [duvelisib]
How it was run: as §1

Measured: log2 fold change

MAPK12 (UniProt P53778)
active: [8] 0.34
inactive: [1] -0.005 | [2] 0.105 | [3] -0.106 | gandotinib 0.037 | [4] 0.01 | ispinesib -0.036 | bafetinib -0.037 | [5] 0.008 | nilotinib -0.054 | [6] -0.254 | dasatinib -0.079 | [7] -0.035 | [9] -0.077 | tipifarnib -0.007 | mubritinib 0.061

MAP11 (UniProt Q8WVR3)
inactive: [1] 0.078 | crizotinib -0.03 | [2] 0.115 | [3] 0.129 | gandotinib -0.032 | doramapimod 0.153 | bafetinib 0.053 | [5] 0.018 | nilotinib 0.053 | [6] 0.292 | [7] -0.017 | [8] 0.108 | mubritinib 0.013

LYPLA2 (UniProt O95372)
inactive: [1] -0.028 | crizotinib 0.005 | [2] 0.299 | [3] -0.08 | gandotinib -0.094 | [4] 0.066 | doramapimod 0.016 | ispinesib 0.172 | bafetinib 0.139 | [5] 0.007 | nilotinib 0.13 | [6] -0.042 | dasatinib 0 | [7] -0.026 | [8] 0.175 | [9] 0.298 | tipifarnib -0.054 | mubritinib 0.013

LYN isoform 2 (UniProt P07948)
active: [1] -0.791
inactive: crizotinib -0.211 | [2] -0.281 | [3] -0.294 | doramapimod 0.159 | nilotinib -0.001 | [6] -0.418 | [7] -0.006 | [8] 0 | tipifarnib 0.075

MAPK14 (UniProt Q16539)
active: bafetinib 1.65 | nilotinib 1.68 | dasatinib 1.05
inactive: [1] 0.023 | crizotinib -0.062 | [3] 0.018 | gandotinib -0.099 | [4] 0.015 | ispinesib -0.069 | [5] -0.092 | [6] 0.123 | [7] 0.071 | [8] 0.107 | [9] 0.014 | tipifarnib -0.102 | mubritinib 0

MARCKSL1 (UniProt P49006)
inactive: [1] 0.032 | crizotinib 0.09 | [2] -0.006 | [3] -0.094 | gandotinib -0.006 | [4] -0.074 | doramapimod -0.047 | ispinesib 0.071 | bafetinib 0.04 | [5] -0.087 | nilotinib 0.003 | [6] 0.014 | dasatinib 0.062 | [7] 0.009 | [8] -0.008 | [9] -0.004 | tipifarnib 0.034 | mubritinib 0.005

MAP4K4 isoform 3 (UniProt O95819)
inactive: [1] -0.058 | [2] 0.002 | [3] -0.055 | gandotinib 0.311 | [4] 0.017 | doramapimod -0.156 | ispinesib -0.05 | bafetinib -0.068 | [5] 0.029 | nilotinib -0.038 | [6] -0.094 | dasatinib -0.162 | [7] -0.09 | [8] -0.024 | [9] 0.038 | tipifarnib -0.027 | mubritinib 0.021

MARK2 (UniProt E9PC69)
inactive: [1] 0.068 | crizotinib -0.323 | [2] -0.049 | [3] 0.15 | [4] 0.12 | doramapimod 0.119 | ispinesib -0.232 | bafetinib 0.116 | nilotinib -0.007 | [6] -0.451 | dasatinib -0.158 | [7] -0.031 | [8] -0.038 | [9] -0.088 | tipifarnib -0.215

MAP3K7 (UniProt O43318)
inactive: [1] 0.093 | crizotinib -0.193 | [2] -0.035 | [3] 0.135 | gandotinib -0.036 | [4] 0.118 | doramapimod -0.001 | ispinesib -0.029 | bafetinib 0.029 | [5] 0.085 | nilotinib -0.105 | [6] -0.028 | dasatinib -0.038 | [7] 0.059 | [8] -0.095 | [9] -0.026 | tipifarnib -0.064 | mubritinib 0.046

LSR (UniProt M0QZL9)
inactive: [1] -0.03 | [2] 0.118

MAD2L1 (UniProt Q13257)
inactive: [1] 0.02 | crizotinib -0.076 | [2] 0.092 | [3] -0.004 | gandotinib -0.139 | [4] 0.037 | doramapimod 0.034 | ispinesib -0.023 | bafetinib -0.054 | [5] 0.018 | nilotinib -0.082 | [6] -0.042 | dasatinib -0.06 | [7] -0.012 | [8] -0.001 | [9] 0.009 | tipifarnib -0.055 | mubritinib 0.042

MAPK14 isoform 2 (UniProt Q16539)
inactive: [1] 0.087 | crizotinib -0.062 | [2] -0.018 | [3] -0.013 | gandotinib -0.022 | [4] 0.017 | ispinesib -0.038 | [5] -0.038 | [6] 0.176 | [7] 0.037 | [8] -0.071 | [9] -0.02 | tipifarnib -0.049 | mubritinib 0
active: bafetinib 1.73 | nilotinib 1.67 | dasatinib 1.37

LYL1 (UniProt P12980)
inactive: [1] -0.005 | crizotinib -0.137 | [2] 0.164 | [3] 0.157 | tozasertib 0.068 | doramapimod 0.153 | ispinesib -0.007 | bafetinib -0.151 | nilotinib -0.126 | [6] -0.072 | [7] -0.074 | [8] -0.037 | [9] -0.087 | tipifarnib -0.036 | mubritinib -0.224

MAP3K4 isoform 2 (UniProt Q9Y6R4)
active: crizotinib -0.256 | [6] 0.221 | dasatinib 0.534
inactive: [1] 0.012 | [2] 0.042 | [3] -0.017 | gandotinib -0.054 | [4] 0 | doramapimod 0.02 | ispinesib 0.021 | bafetinib -0.059 | [5] -0.095 | nilotinib 0.008 | [7] 0.027 | [8] -0.031 | [9] 0.021 | tipifarnib -0.032 | mubritinib 0.016

MAP4K5 (UniProt Q9Y4K4)
inactive: [1] 0.019 | [2] 0.072 | [3] 0.24 | gandotinib -0.067 | doramapimod -0.064 | ispinesib -0.045 | bafetinib -0.064 | [5] -0.001 | nilotinib 0.136 | [6] -0.093 | [7] -0.116 | [8] -0.125 | [9] 0.019 | tipifarnib -0.146 | mubritinib 0.022

MAPKAPK5 (UniProt Q8IW41)
inactive: [1] 0.012 | crizotinib -0.046 | [2] 0.027 | [3] 0.069 | gandotinib 0.297 | [4] -0.013 | doramapimod 0.141 | ispinesib -0.017 | bafetinib 0.123 | [5] -0.014 | nilotinib 0.057 | [6] -0.035 | dasatinib -0.031 | [7] 0.052 | [8] -0.065 | [9] -0.074 | tipifarnib -0.083 | mubritinib 0.075

MAP7D3 (UniProt Q8IWC1)
inactive: [1] -0.058 | [2] -0.306 | [3] 0.405 | gandotinib 0.074 | ispinesib -0.114 | bafetinib 0.346 | [5] -0.058 | nilotinib 0.023 | [6] 0.167 | [7] -0.039 | [8] -0.045 | [9] -0.161

MAP3K3 isoform 2 (UniProt Q99759)
inactive: [1] 0.053 | [2] -0.062 | [3] 0.005 | duvelisib 0.014 | gandotinib 0.138 | tozasertib -0.027 | [4] 0.072 | ispinesib -0.002 | [5] -0.012 | nilotinib 0.003 | [6] -0.17 | dasatinib -0.307 | [7] -0.069 | [8] 0.02 | [9] 0.022 | mubritinib 0.075

MAP2K3 isoform 3 (UniProt P46734)
inactive: [1] 0.054 | crizotinib -0.049 | [2] -0.068 | [3] 0.043 | gandotinib -0.001 | [4] -0.007 | doramapimod 0.012 | ispinesib -0.02 | bafetinib -0.071 | [5] 0.096 | nilotinib -0.019 | [6] 0.021 | dasatinib -0.04 | [7] -0.049 | [8] 0.005 | [9] -0.083 | tipifarnib 0.08 | mubritinib -0.145

LUM (UniProt P51884)
inactive: [1] -0.011 | crizotinib 0.352 | [2] -0.146 | [3] 0.217 | [4] -0.135 | doramapimod 0.168 | ispinesib -0.007 | nilotinib 0.449 | [6] 0.036 | dasatinib 0.002 | [7] 0.257 | [8] 0.177 | [9] -0.075 | tipifarnib 0.055

2 neighbouring records out of the list so far, quoted:
MAPKAPK5 (UniProt Q8IW41)
inactive: [1] 0.012 | crizotinib -0.046 | [2] 0.027 | [3] 0.069 | gandotinib 0.297 | [4] -0.013 | doramapimod 0.141 | ispinesib -0.017 | bafetinib 0.123 | [5] -0.014 | nilotinib 0.057 | [6] -0.035 | dasatinib -0.031 | [7] 0.052 | [8] -0.065 | [9] -0.074 | tipifarnib -0.083 | mubritinib 0.075

MAP7D3 (UniProt Q8IWC1)
inactive: [1] -0.058 | [2] -0.306 | [3] 0.405 | gandotinib 0.074 | ispinesib -0.114 | bafetinib 0.346 | [5] -0.058 | nilotinib 0.023 | [6] 0.167 | [7] -0.039 | [8] -0.045 | [9] -0.161

— the supplement of paper PMC10849652
